Results are given in words; binding and its absence hold for the method and conditions named. Binding seen in cells or lysates may run through a third protein. Some entries that bind do so weakly or less than the wild type.
Target: EphA7 full-length isoform with hemagglutinin tag (EphA7-FL-HA) (UniProt Q61772)
Test: co-IP; HEK cells co-transfected with EphA7-FL-HA and EphA7-T1-myc (1:1, or T1:FL 0.2:1, 1:1, 5:1 with 15 min clustered ephrin-A5-hFC or hFC); lysed in 1% NP-40, 50 mM Tris-HCl pH 8.0, 150 mM NaCl; anti-HA or anti-myc on protein A/G agarose, overnight 4°C; blots for EphA7, HA, myc

Protein sequences, listed by entry. Tags and fused reporters are not part of them. Lines headed by an entry give the natural chain unless they say otherwise; changes in a name come on top. Chains listed by the source or under a name are the forms on record and can include a tag or linker. Residues count along the entry.
EphA7 full-length isoform with hemagglutinin tag (EphA7-FL-HA) (Q61772, residues 28-998): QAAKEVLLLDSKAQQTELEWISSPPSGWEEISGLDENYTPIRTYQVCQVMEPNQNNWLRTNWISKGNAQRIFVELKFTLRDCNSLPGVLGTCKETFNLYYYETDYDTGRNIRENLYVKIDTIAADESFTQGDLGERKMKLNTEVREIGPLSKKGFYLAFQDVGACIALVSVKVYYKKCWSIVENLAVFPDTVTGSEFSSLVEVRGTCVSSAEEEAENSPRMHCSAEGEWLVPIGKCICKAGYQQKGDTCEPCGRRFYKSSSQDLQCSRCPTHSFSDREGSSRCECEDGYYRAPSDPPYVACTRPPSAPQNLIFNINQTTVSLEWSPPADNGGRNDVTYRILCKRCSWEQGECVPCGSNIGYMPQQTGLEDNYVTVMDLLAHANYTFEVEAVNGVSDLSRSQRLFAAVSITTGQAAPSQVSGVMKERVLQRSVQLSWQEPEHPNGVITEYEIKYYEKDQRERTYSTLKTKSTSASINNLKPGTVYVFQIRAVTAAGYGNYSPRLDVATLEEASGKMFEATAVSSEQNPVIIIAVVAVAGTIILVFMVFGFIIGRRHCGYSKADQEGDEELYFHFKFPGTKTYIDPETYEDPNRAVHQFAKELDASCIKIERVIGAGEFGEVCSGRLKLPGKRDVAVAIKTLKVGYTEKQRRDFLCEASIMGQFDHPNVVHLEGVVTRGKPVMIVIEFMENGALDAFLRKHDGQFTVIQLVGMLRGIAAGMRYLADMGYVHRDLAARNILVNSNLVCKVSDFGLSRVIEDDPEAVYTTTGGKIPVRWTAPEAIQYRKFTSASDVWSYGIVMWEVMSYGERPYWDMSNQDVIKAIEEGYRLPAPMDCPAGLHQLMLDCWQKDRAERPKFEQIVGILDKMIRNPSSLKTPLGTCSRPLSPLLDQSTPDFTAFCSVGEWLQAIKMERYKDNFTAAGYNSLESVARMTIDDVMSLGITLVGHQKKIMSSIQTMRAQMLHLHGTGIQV
EphA7 truncated isoform with myc tag (EphA7-T1-myc) (Q61772-4, form named): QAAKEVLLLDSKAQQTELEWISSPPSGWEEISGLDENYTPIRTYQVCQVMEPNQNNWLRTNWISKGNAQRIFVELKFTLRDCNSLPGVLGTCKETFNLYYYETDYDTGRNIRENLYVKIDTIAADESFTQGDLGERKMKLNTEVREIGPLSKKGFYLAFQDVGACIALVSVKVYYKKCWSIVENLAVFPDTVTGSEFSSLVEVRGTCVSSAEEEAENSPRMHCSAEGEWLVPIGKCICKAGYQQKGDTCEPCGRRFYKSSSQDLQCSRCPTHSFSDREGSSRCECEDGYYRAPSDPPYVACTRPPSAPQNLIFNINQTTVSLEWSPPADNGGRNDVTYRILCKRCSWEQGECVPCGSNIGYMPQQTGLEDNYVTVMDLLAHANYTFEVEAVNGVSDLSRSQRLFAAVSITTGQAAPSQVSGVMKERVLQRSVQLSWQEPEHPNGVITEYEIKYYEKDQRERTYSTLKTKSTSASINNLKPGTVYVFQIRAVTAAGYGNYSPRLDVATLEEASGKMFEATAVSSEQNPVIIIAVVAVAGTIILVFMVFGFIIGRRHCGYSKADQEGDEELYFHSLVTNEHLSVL

binding: binds
Substance: EphA7 truncated isoform with myc tag (EphA7-T1-myc) (from UniProt Q61772-4 28-610) (receptor)

— PMC7717530
